Laboratory results: publication PMC8560711
No constants are given. Whether binding was seen depends on the method and setting. Binding seen in cells or lysates may run through a third protein. Some results given as binding are weak or reduced against the parent protein; the word gives no strength.

By UniProt entry, the sequences of proteins in these tests, tags left out.
UniProt Q8R4B8: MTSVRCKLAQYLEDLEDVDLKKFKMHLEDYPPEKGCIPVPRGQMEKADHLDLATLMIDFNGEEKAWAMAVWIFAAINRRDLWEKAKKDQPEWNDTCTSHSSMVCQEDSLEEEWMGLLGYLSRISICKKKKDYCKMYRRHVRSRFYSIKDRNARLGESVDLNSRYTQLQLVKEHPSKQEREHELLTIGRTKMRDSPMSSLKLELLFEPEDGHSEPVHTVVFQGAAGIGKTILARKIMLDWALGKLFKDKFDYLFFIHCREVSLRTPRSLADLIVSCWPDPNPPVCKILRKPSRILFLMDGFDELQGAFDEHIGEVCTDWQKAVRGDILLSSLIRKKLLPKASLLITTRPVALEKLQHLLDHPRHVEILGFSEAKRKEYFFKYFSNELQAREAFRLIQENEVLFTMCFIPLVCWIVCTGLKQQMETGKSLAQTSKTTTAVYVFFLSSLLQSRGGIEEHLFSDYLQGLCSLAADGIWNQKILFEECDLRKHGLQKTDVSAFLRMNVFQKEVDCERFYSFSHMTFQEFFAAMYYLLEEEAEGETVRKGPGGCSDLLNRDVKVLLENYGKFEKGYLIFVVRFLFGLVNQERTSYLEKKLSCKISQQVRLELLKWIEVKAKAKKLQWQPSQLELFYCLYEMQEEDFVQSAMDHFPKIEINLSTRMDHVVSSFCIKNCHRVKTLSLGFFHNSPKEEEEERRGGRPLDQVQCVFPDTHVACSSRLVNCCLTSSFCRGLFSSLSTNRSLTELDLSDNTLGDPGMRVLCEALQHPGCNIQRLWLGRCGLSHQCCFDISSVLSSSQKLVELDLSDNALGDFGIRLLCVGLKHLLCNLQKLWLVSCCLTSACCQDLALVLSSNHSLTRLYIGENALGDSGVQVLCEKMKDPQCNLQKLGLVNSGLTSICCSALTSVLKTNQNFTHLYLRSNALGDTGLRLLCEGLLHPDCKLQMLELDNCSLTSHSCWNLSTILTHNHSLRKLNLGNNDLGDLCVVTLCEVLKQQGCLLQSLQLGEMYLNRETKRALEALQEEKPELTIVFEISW

Biological target: nucleotide-binding oligomerization domain-like receptor protein 3 (mouse (endogenous in BMDMs)) (UniProt Q8R4B8)
Test: co-IP; lysates (RIPA buffer) of BMDMs treated with LPS and 5 mM ATP for 24 h, without or with calycosin (5 and 10 uM); immunoprecipitated with NLRP3 antibody or IgG control antibody with protein A/G beads; western blot

binding: binds
B1: caspase 1 (protein, UniProt P29452 1-402)
chain: MADKILRAKRKQFINSVSIGTINGLLDELLEKRVLNQEEMDKIKLANITAMDKARDLCDHVSKKGPQASQIFITYICNEDCYLAGILELQSAPSAETFVATEDSKGGHPSSSETKEEQNKEDGTFPGLTGTLKFCPLEKAQKLWKENPSEIYPIMNTTTRTRLALIICNTEFQHLSPRVGAQVDLREMKLLLEDLGYTVKVKENLTALEMVKEVKEFAACPEHKTSDSTFLVFMSHGIQEGICGTTYSNEVSDILKVDTIFQMMNTLKCPSLKDKPKVIIIQACRGEKQGVVLLKDSVRDSEEDFLTDAIFEDDGIKKAHIEKDFIAFCSSTPDNVSWRHPVRGSLFIESLIKHMKEYAWSCDLEDIFRKVRFSFEQPEFRLQMPTADRVTLTKRFYLFPGH
